This note sets out measurements from patent publication US20090286883A1, “TREATMENT OF HEART FAILURE AND ASSOCIATED CONDITIONS BY ADMINISTRATION OF MONOAMINE OXIDASE INHIBITORS” (Universita' degli Studi di Padova (University of Padua), priority 2008, published 2009).

The test system of this data set is TAC-induced pressure overload. In words: Transverse aortic constriction (TAC) pressure overload in mice, cardiac morphology and in vivo ventricular function. The conditions noted are these: clorgyline 1 mg/kg/day.

For `C#CCN(C)CCCOc1ccc(Cl)cc1Cl` [clorgyline], the BW reads like this: (TAC 3 weeks) 25.6 ± 0.6 g; (TAC 6 weeks) 27.1 ± 0.4 g.
